Measured values taken from patent publication EP0063525A1, “Dibenzazepine tetracyclic derivatives, process for their preparation and pharmaceutical compositions containing them” (CENTRE NATIONAL DE LA RECHERCHE SCIENTIFIQUE (CNRS), priority 1981, dated 1982).

Test system: Souris
Test: tetrabenazine hypothermia
Format: in vivo
Conditions: before tétrabénazine
Method: Ce test permet de révéler également une activité antidépressive avec l'avantage d'une lecture plus rapide qu'avec la réserpine.
Les produits sont injectés 30 minutes avant l'administration de tétrabénazine.
Les températures sont relevées aux temps : 0, 30 minutes, 60 minutes, 90 minutes et 120 minutes.
Les souris sont réparties par lots de 5.
Les températures sont relevées avant l'injection de tétrabénazine, 30 minutes, 60 minutes, 90 minutes et 120 minutes après.
Le lot témoin comprend 20 souris.

## O=C(O)CCCCCCNC1c2ccccc2CCc2ccccc21 [Aminep-tine, amineptine, reference compound]
Product i.p. 80 mg/kg
  Température 30 minutes après administration du produit: 36,1 °C

## CN(C)CCN1c2ccccc2C2ON=C(c3ccccc3)C2c2ccccc21 (stereo not drawn) [Composé 2, (β-diméthylaminoéthyl)-8 phényl-3 trihydro-3a,8, 12b (dibenzo [b,f]isoxazolo [4,5-d])azépine]
Product i.p. 5 mg/kg
  Température 30 minutes après administration du produit: 37,6 °C

## CN(C)CCCN1c2ccccc2C2ON=C(c3ccccc3)C2c2ccccc21 (stereo not drawn) [compound 3, (γ-diméthylaminopropyl)-8 phényl-3 trihydro-3a, 8,12b (dibenzo [b,f]isoxazolo [4,5-d])azépine]
Product i.p. 50 mg/kg
  Température 30 minutes après administration du produit: 34,4 °C

## CN(C)CCN1c2ccccc2C2C(c3ccccc3)=NN(c3ccccc3)C2c2ccccc21 (stereo not drawn) [compound 7, (β-diméthylaminoéthyl)-8 diphényl-1,3 tétrahydro-1,3a, 8, 12b (dibenzo [b,f]pyrazolo [3,4-d]) azépine]
Product i.p. 100 mg/kg
  Température 30 minutes après administration du produit: 35,3 °C

## CN(C)CCN1c2ccccc2-c2c(-c3ccccc3)nn(-c3ccccc3)c2-c2ccccc21 [compound 13]
Product i.p. 200 mg/kg
  Température 30 minutes après administration du produit: 35,6 °C

## CN(C)CCCN1c2ccccc2-c2onc(-c3ccccc3)c2-c2ccccc21 [compound 18]
Product i.p. 50 mg/kg
  Température 30 minutes après administration du produit: 35,2 °C

## CN(C)CCN1c2ccccc2C=Cc2ccccc21 [compound 20, (β-diméthylaminoéthyl)-5 dibenzo [b,f] 5H azépine, reference compound]
Product i.p. 50 mg/kg
  Température 30 minutes après administration du produit: 35,6 °C

## CC(CN(C)C)CN1c2ccccc2C=Cc2ccccc21 (stereo not drawn) [compound 22, (méthyl-2 diméthylamino-3 propyl)-5 dibenzo [b,f] 5H azépine, reference compound]
Product i.p. 25 mg/kg
  Température 30 minutes après administration du produit: 32,5 °C

## ( [1'-(β-hydroxyéthyl-4') pipérazinyl]-3propyl)-8 diphényl-1,3 tétrahydro-1,3a, 8,12b(dibenzo[b,f] pyrazolo [3,4-d])azépine [compound 10]
Product i.p. 150 mg/kg
  Température 30 minutes après administration du produit: 34 °C
